Assay results from the supplement of paper PMC3334620.
Over roughly 33,000 sequences, “E-score (-0.5 to 0.5)” has its median near -0.016; the highest 2% begin near 0.3. Some of the results follow.

Target: T1, Yer184c (UniProt P39961)
T1 sequence: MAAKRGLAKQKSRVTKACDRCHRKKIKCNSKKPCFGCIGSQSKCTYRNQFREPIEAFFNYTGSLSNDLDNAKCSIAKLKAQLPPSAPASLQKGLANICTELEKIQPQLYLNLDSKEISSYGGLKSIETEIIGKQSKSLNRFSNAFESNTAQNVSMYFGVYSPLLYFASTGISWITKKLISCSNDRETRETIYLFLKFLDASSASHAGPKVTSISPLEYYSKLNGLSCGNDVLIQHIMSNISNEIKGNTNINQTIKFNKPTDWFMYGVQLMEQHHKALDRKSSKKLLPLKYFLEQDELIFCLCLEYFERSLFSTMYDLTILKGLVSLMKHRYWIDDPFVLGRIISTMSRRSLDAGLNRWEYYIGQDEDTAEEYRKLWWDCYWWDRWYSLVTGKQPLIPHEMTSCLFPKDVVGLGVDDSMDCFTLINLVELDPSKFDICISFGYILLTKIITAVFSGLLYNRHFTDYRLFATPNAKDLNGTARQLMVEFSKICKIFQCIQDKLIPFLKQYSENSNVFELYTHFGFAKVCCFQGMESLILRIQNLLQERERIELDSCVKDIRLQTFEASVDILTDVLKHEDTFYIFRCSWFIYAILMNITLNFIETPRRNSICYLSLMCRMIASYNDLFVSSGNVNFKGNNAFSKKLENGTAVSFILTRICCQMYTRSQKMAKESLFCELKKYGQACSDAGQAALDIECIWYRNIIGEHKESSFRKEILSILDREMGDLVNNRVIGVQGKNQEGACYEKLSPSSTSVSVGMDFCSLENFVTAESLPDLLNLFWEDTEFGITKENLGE
Experiment: PBM E-score (8-mer binding enrichment) (E-score (-0.5 to 0.5)); higher = stronger / more preferred TF binding
Conditions: protein concentration: 100 nM; construct: GST-full length
Method in brief: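 Masliner-normalised scans of fluorescent anti-GST signal were the basis for scoring. That signal came from GST-tagged yeast transcription factors applied at about 100-200 nM to double-stranded universal all-10-mer Agilent arrays on fresh or once-stripped slides. Each ungapped eight-base word, pooled with its reverse complement, received an E-score from the Universal PBM Analysis Suite.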

Row | Sequence | PBM E-score
1 | GATTTTTA | 0.161
2 | GATAGCCC | -0.0885
3 | AACGTGCA | -0.168
4 | AGCACTAG | -0.0941
5 | GTTCATCA | 0.027
6 | GCAGATAC | -0.00051
7 | CTGATATA | 0.138
8 | CTGCGAAA | 0.00134
9 | ACGACTCT | -0.146
10 | CGATCACC | -0.0384
11 | AGCTGACT | 0.0726
12 | CTGTAGTA | 0.149
13 | ATGGAGTC | -0.0451
14 | GAACTGCC | -0.0192
15 | GACCGATA | 0.0857
16 | ATCTGCGA | -0.141
17 | CCCGATCG | 0.0619
18 | ACGCAACT | 0.0668
19 | CTTGGATC | -0.0713
20 | CGGTGGAA | -0.0704
21 | GAAGATAA | 0.261
22 | AACTTAAG | 0.0848
23 | CAAGTCAG | -0.109
24 | AGGGAAAG | -0.114
25 | CACATTAG | -0.177

Row | Sequence | PBM E-score
26 | ATTGCTAA | 0.0939
27 | CGGAACTA | 0.414
28 | AGACGACT | -0.0372
29 | GGATATCC | 0.203
30 | GAATATCC | 0.0955
31 | GATCCGCC | 0.0797
32 | AGGGAGGA | -0.251
33 | ACTGTGGA | -0.198
34 | ATTCCCTG | -0.022
35 | CGCCTGAC | -0.07
36 | GTCGAGCA | -0.234
37 | GTAGCTAC | -0.0667
38 | AGCAGTAG | -0.161
39 | CCGCCTAG | -0.223
40 | AATGGTCC | 0.131
41 | AGACCAGA | -0.073
42 | AAGCGCAA | 0.114
43 | AACGTTGG | -0.0563
44 | AGGAGACT | -0.348
45 | CACGCTCA | -0.00869
46 | CGTGCGCC | 0.0367
47 | ATGTGCGA | -0.122
48 | GCGGATAC | 0.205
49 | ATTGGTCC | 0.0814
50 | CACCAAGA | -0.0152

Row | Sequence | PBM E-score
51 | ATGGCGGA | 0.0828
52 | GGGTAGGA | -0.0324
53 | CTAAAGGA | 0.0788
54 | CTCCACAA | -0.017
55 | CCGAACGG | 0.325
56 | GCCCAAAA | 0.155
57 | ATTTTTTG | 0.146
58 | AGTGGCAA | 0.0115
59 | ATAAGTCG | -0.0353
60 | AACCCTCC | -0.239
61 | CAGCTCGC | -0.0341
62 | AAAGAGCT | -0.0208
63 | AGTTGAAT | 0.136
64 | AATTTCTC | 0.115
65 | TCCACCAA | -0.0675
66 | ATGGACTG | -0.129
67 | CTGAAAGC | 0.0737
68 | GCAAGCGA | -0.00686
69 | AACCAAGA | 0.134
70 | AAGGGATA | -0.0168
71 | CGACAACC | -0.12
72 | GAAATTTC | -0.0278
73 | AGGACCGC | 0.0318
74 | GAGTACTA | 0.177
75 | AGCTATAG | -0.131

Row | Sequence | PBM E-score
76 | CGACTACA | -0.0829
77 | AGCAAAGA | -0.0138
78 | GGGGGTAC | -0.221
79 | ATTGCTGG | -0.0522
80 | ACGTCTTG | -0.0662
81 | TATCCACA | 0.0788
82 | CTATGGAC | -0.0818
83 | AGTTTCCA | 0.111
84 | CGGGCTGC | 0.0615
85 | CTGGCTAC | -0.13
86 | GATTTATA | 0.297
87 | AACCCTGC | -0.247
88 | CACATATG | -0.165
89 | ACAATCCT | 0.0829
90 | ATGTGTCA | -0.0277
91 | CGTAGCTA | -0.137
92 | AATAATCC | 0.184
93 | GTACCTAA | -0.23
94 | AACTCTGG | -0.119
95 | ACCCGCCC | 0.11
96 | AACGACTT | -0.108
97 | CTTAGAAG | -0.125
98 | AAACGTTG | -0.184
99 | CCCGGGTA | 0.283
100 | GACTCCTA | -0.261

Random excerpt: 4 entries already listed, in no set order.
Row | Sequence | PBM E-score
92 | AATAATCC | 0.184
80 | ACGTCTTG | -0.0662
100 | GACTCCTA | -0.261
90 | ATGTGTCA | -0.0277

Later entries

Row | Sequence | PBM E-score
101 | AGCGTATG | -0.105
102 | AGCATCGC | -0.126
103 | CATTCTAC | -0.0223
104 | CAGTCATG | -0.162
105 | CAATACTA | 0.0125
106 | AGCAATAG | 0.0329
107 | GTTCCTCA | 0.145
108 | CGGCTTAA | 0.393
109 | ACCGTGCG | 0.179
110 | AACATACA | 0.122
111 | GTAGGCAA | -0.151
112 | AGAGGCTA | -0.234
113 | ACGTCGTG | -0.08
114 | CCCCACAG | -0.395
115 | GATCTACC | -0.0369
116 | CCAGCTTC | -0.0253
117 | CGCACTAC | 0.0422
118 | CCCCTACG | -0.32
119 | CACGGTAG | -0.083
120 | CAAGGATA | -0.0105
121 | ACCACTTG | -0.0241
122 | GTCGTTAA | 0.183
123 | AGCCCCTC | -0.186
124 | CCCAAAAC | 0.121
125 | CATTATGA | -0.112

Row | Sequence | PBM E-score
126 | CACTAGTG | 0.00908
127 | AGACGGGG | -0.159
128 | CTGAATAA | 0.134
129 | TAATTATA | 0.322
130 | GGCGAAGA | -0.0125
131 | GAGTATGA | 0.0948
132 | ACTATTGA | 0.142
133 | TCCGATAA | 0.22
134 | AGTGGATA | 0.00091
135 | GACGGATA | 0.125
136 | ATCGCTTA | -0.159
137 | CGGGGGAG | -0.281
138 | TGCACTAA | 0.18
139 | AGATTCGG | 0.294
140 | AGCACATC | 0.0173
141 | ACAAGACC | -0.0478
142 | AAGTAGAA | 0.0158
143 | ACCAGGAG | -0.1
144 | CGAAATAG | 0.214
145 | CTCGAAGC | 0.00029
146 | TCTGCGCA | -0.0569
147 | CTCATAAG | 0.0608
148 | AGAGGTAC | -0.254
149 | GACGAAGC | 0.0181
150 | GGAACGAC | -0.0886

Row | Sequence | PBM E-score
151 | CATCCCCC | -0.356
152 | CGTCCGAC | -0.0398
153 | ATATAGTA | 0.0216
154 | CTAATAGA | 0.196
155 | GCCGCGAA | -0.0654
156 | ACATGAGT | -0.154
157 | ACTTGAGC | -0.236
158 | GATTTTAC | 0.123
159 | AATTCCTC | 0.0149
160 | CCTATATC | -0.0566
161 | GTCGTGGA | -0.0984
162 | ACCAAGGA | -0.0323
163 | ATCGGGGC | -0.157
164 | ACTCTCCC | 0.0647
165 | AATAGACT | -0.0293
166 | ATAACCCC | -0.243
167 | CAGTACTA | 0.0892
168 | CCGTGTAC | 0.0859
169 | CTTCCATC | 0.0108
170 | ATCAGTTG | -0.102
171 | GATCTTGC | 0.0396
172 | CGACCAGA | -0.106
